The test system of this test is primary human hepatic stellate cells (donor 1). The test can be described thus: percent Bodipy-positive cells; higher = more lipid droplet accumulation. Conditions: 48 h.
[1] abbreviates: library stock concentration: 1 mM.
Setting [2] is: library stock concentration: 3.33 mM.
Setting [3] is: library stock concentration: 10 mM.
The mark [4] stands for this setting: library stock concentration: 80 uM.
The mark [5] stands for this setting: library stock concentration: 400 uM.
Where [6] appears, read: library stock concentration: 2 mM.

Values joined by “and” are separate entries in the source; they are usually repeats but may differ in a detail not shown here. Equal entries are not always repeated. ± gives the standard deviation of the averaged measurements. Some of the results follow. Baselines shift from plate to plate; read single values as rough.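 Assay uses culture-activated primary human stellate myofibroblasts; lipid droplet recovery indicates inactivation. Measured: proportion of Hoechst-counted cells over a plate-specific Bodipy cutoff, duplicate wells, DMSO and nortriptyline as per-plate negative and positive controls. A hit scores, control-normalized, above the plate's top-tenth-percentile nortriptyline wells or ranks among its three best wells. Final well concentrations not reported.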

Turning to `Cc1c(O)c(=O)n(-c2ccccc2)n1C` [Antipyrine, 4-hydroxy], the “percent Bodipy-positive cells” value turned out to be 26.8 ± 6.5%.
Consider `CC(C)OC(=O)C(C)(C)Oc1ccc(C(=O)c2ccc(Cl)cc2)cc1` [Fenofibrate], for which the “percent Bodipy-positive cells” value is 23.8 ± 4.7%. Also, the “percent Bodipy-positive cells” value under setting [1] is 10.1 ± 0.88%. Further, the “percent Bodipy-positive cells” value under setting [2] worked out at 10.6 ± 3.5%.
Regarding `CC(C)OC(=O)C(C)(C)Oc1ccc(C(=O)c2ccc(Cl)cc2)cc1`, under setting [3], the “percent Bodipy-positive cells” value is 59.6 ± 7.3%.
Regarding `OCCOc1ccc(/C(=C(/CCCl)c2ccccc2)c2ccccc2)cc1` [Ospemifene], the “percent Bodipy-positive cells” value came to 20.3 ± 0.64% under setting [2] and 51.8 ± 3% under setting [3].
As for `CCCCCCCC/C=C\CCCCCCCC(=O)OCC` [Oleic Acid ethyl ester], the “percent Bodipy-positive cells” value under setting [1] turned out to be 19.4 ± 5.6%.
On to `COc1cc2c(cc1OC)-c1[nH]nc(Nc3cccc(F)c3)c1C2`, for which the “percent Bodipy-positive cells” value was 14.6 ± 7.6% under setting [4]; 15.3 ± 6.2% under setting [5]; 20.4 ± 4.8% under setting [1]; 27 ± 7.7% under setting [6]; 60.4 ± 5.7% under setting [3].
Regarding `COc1cc2c(cc1OC)-c1[nH]nc(Nc3cccc(F)c3)c1C2` [PDGF Receptor Tyrosine Kinase Inhibitor IV], the “percent Bodipy-positive cells” value under setting [2] came out at 39.2 ± 3.8%.
For `Cn1cc(/C=C2\C(=O)Nc3cccnc32)c2ccccc21`, the “percent Bodipy-positive cells” value is 21.5 ± 16% under setting [5]; 12.8 ± 0.48% under setting [6]; 7.7% and 21.3% under setting [3].
For `Cc1ccc(NC(=O)C2(c3ccc4c(c3)OC(F)(F)O4)CC2)nc1-c1cccc(C(=O)O)c1` [VX-809 (Lumacaftor)], the “percent Bodipy-positive cells” value amounted to 7.02 ± 1.5% under setting [2] and 17.3 ± 0.32% under setting [3].
`CNCc1ccc(-c2[nH]c3cc(F)cc4c3c2CCNC4=O)cc1.O=P(O)(O)O`: the “percent Bodipy-positive cells” value under setting [3] is 94 ± 2.2%.
Turning to `CC(=NNC(=S)N1CCC1)c1ccccn1`, the “percent Bodipy-positive cells” value by setting is: under setting [2], 53.6 ± 5.4%; under setting [3], 68.9 ± 8.8%.
Take `CN(C)CCCN1c2ccccc2CCc2ccc(Cl)cc21.Cl` [Clomipramine hydrochloride]: the “percent Bodipy-positive cells” value under setting [3] is 77.8 ± 2.9%.
Take `Cc1cc2c(s1)Nc1ccccc1N=C2N1CCN(C)CC1` [Olanzapine]: the “percent Bodipy-positive cells” value under setting [2] worked out at 44.3 ± 6.5%; the “percent Bodipy-positive cells” value (library stock concentration: 6.4 mM) is 27.4% and 14.9%; the “percent Bodipy-positive cells” value under setting [3] stood at 37.8 ± 3.9%.
On to `Cc1cc2c(s1)Nc1ccccc1N=C2N1CCN(C)CC1`, for which, for the setting “library stock concentration: 9.9 mM”, the “percent Bodipy-positive cells” value came to 38.1 ± 7.7%.
As for `Cc1cc(C(=O)O)sc1C(N)C(=O)O` (centres undefined), under setting [3], the “percent Bodipy-positive cells” value amounted to 9.54 ± 1.3%.
For the compound `CN1C(=O)C(Cc2c[nH]c3ccccc23)NC1=S` (centres undefined) [Necrostatin-1], the “percent Bodipy-positive cells” value is, setting by setting: under setting [4], 5.7 ± 0.61%; under setting [5], 7.74 ± 0.94%; under setting [6], 5.61 ± 1.8%.
As to `O=S(=O)(O)Oc1ccc(C(c2ccc(OS(=O)(=O)O)cc2)c2ccccn2)cc1` [Sodium Picosulfate], the “percent Bodipy-positive cells” value runs as follows: under setting [2], 11.4 ± 6.7%; under setting [3], 24.7 ± 13%.
For the compound `Nc1nc(OCC2CCCCC2)c2[nH]cnc2n1`, under setting [3], the “percent Bodipy-positive cells” value worked out at 33.8 ± 6.2%.
Regarding `CC=CC1=C(C(=O)O)N2C(=O)[C@@H](NC(=O)[C@H](N)c3ccc(O)cc3)[C@H]2SC1` [Cefprozil], the “percent Bodipy-positive cells” value runs as follows: (library stock concentration: 5.1 mM) 11 ± 7.8%; under setting [3], 19.3 ± 3.8%.
`CCCCC/C=C\C/C=C\C/C=C\CCCCCCC(=O)O` [Dihomo-.gamma.-Linolenic Acid]: under setting [1], the “percent Bodipy-positive cells” value was 9.34 ± 0.44%.
With `CCCCC/C=C\C/C=C\C/C=C\CCCCCCC(=O)O` [Dihomo-gamma-linolenic acid], the “percent Bodipy-positive cells” value under setting [1] is 8.78 ± 5.7%.
With `CCN(CC)CCOc1ccc(Nc2ncc3cc(-c4c(Cl)cccc4Cl)c(=O)n(C)c3n2)cc1`, under setting [3], the “percent Bodipy-positive cells” value came out at 98.67 ± 0.16%.

These data come from the supplement of paper PMC9135407.
